The source of these data is doi:10.1101/265876.

The target in the assay is T1, SPR-5 tagged with GFP and HA (spr-5::GFP::HA) (C. elegans) (UniProt Q9XWP6).
T1 sequence: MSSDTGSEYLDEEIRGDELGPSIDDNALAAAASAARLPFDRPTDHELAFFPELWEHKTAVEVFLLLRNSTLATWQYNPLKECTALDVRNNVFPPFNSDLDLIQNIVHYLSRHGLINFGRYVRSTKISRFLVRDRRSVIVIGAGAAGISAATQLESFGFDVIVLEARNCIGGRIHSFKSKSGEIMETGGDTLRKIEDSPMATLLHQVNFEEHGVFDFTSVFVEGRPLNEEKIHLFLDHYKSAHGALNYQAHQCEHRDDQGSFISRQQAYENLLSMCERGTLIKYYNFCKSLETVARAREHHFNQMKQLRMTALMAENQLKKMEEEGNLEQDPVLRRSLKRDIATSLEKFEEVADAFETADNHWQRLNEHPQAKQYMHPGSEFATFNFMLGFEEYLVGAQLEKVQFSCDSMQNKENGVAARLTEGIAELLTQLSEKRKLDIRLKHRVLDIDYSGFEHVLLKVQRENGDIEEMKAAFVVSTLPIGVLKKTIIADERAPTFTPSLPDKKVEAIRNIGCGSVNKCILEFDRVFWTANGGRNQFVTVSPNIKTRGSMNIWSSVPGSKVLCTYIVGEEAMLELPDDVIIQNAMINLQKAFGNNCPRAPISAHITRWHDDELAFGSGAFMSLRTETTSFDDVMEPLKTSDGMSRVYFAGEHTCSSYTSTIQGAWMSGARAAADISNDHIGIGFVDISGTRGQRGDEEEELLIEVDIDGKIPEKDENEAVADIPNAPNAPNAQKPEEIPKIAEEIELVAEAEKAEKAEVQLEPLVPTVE
As to the kind of experiment: affinity purification with mass spectrometry.

These are yes or no findings as the source states them, for the method shown. Binding seen in cells or lysates may run through a third protein. These calls come from enrichment with a bait or labelling near it, and not all partners need be listed. Sequences can lack the tags named with a protein.

With “FNCM-1, the Fanconi anemia (FA) FANCM homolog in C. elegans (from UniProt P91352)”, the binding entry was “binds”.

B1: RCOR-1, an ortholog of human REST co-repressors 2 and 3 (RCOR2 and RCOR3) (protein, UniProt Q95Y41 1-564)
chain: MDSYTSSDEDASRKENISDEGLNMLNASPEPMEEDDPEEQAEQEEETSRMARPIRSMRKRETTSGESMGDEDEDLEDEEDEDEEAEAREHHESGAHDTSFSNPLSNVDNLIHVGTEYQAIIQPTAEQLEKEPCRDQQIWAFPDEMNENRLTEYISEATGRYQLPIDRALFILNKQSNDFDAAMVQAMRRKEIHDDWTAEEISLFSTCFFHFGKRFKKIHAAMPQRSLSSIIQYYYNTKKVQNYKTMINVHLNETDTYDELFKEVNHLERVPSGYCENCNAKSDLLILNRVMSRHECKPCILYFRLMRVPRPASLRALTKRRQRVLCPEYMKIYVYGYLELMEPANGKAIKRLGIGKEKEEDDDIMVVDDCLLRKPSGPYIVEQSIEADPIDENTCRMTRCFDTPAALALIDNIKRKHHMCVPLVWRVKQTKCMEENEILNEEARQQMFRATMTYSRVPKGEIANWKKDMMALKGRFERFTPELDTTATNGNRSGKVRINYGWSPEEKKNAIRCFHWYKDNFELIAELMATKTVEQIKKFYMDNEKLILESIDTYRAELKSKLGK
B1: the binding entry is “binds”.

B2: SPR-1, the ortholog of human co-repressor CoREST (protein, UniProt Q18919 1-558)
chain: MDLYDDDGESAQSEKVDVPSEESTIAGPETDIPAETIEENVPEVEENTLLEEDSLVDVDSPRPSQQRSKPSKSKRKRKRSSSGESSAAEPEIDAGAKVKGPLSNTNKEINVGTEFQAKIADLNLNDKACNEDRDDQDELIWNTPETIDDEKLEAFIRESSDRYLIPIDRALYILTINNFNFDSAIAEVARRNELKDVWTDQEITLFENCYQIFGKNFSQIRSALCHRSLQSIVQFYYESKKRVKYLNFVNSKCDDSSSSEETETPSPYPEAIFESMCDNCGEKAENMQINNAMNRPECRACLIYFNQTGVPRPTSLRLVLAERIRNQVSCPDNMKEYMKDFDKLSAQATGSTFQKRIIVKDQCVEYIIDVDKIPSSSCTENGNVGETSSPSAQKTEIQSESDGSGPLIWRHKKTVCMEEIEVLADDSRRKMFEACQHGSKVDIKLVASWKNDMTNLRKRVEQTYYDPDLNPTYLFSHDRVHYSQDWTQLERSQVIRCFNMYGAHFEHIADVIGTKTPDQVYQFYLENQKAIDAADEEFLADMKNPERLADMEEEEDSI
On to B2, for which the binding result is on record as “binds”.
